{"sequences": {"note": "Amino acid sequences for entries named in this document (tags omitted). A change or cut given only in a name is not applied to a line headed by its entry.", "UniProt Q9UNN5": "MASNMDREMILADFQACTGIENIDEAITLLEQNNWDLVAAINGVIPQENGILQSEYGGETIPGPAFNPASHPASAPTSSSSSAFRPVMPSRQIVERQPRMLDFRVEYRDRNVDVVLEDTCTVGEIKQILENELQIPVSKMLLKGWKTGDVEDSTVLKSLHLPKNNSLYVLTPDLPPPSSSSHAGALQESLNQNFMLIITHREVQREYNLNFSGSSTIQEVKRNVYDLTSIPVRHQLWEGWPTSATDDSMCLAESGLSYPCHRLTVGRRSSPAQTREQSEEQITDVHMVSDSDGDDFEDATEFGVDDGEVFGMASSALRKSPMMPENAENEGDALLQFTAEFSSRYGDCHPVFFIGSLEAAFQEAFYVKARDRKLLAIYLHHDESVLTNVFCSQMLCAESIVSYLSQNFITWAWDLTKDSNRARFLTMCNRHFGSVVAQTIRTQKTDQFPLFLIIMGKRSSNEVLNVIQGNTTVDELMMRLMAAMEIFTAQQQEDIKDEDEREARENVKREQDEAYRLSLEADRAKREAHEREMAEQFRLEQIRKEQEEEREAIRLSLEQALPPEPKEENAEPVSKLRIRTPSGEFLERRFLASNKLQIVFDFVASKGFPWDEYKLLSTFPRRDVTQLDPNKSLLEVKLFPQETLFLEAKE", "UniProt O95292": "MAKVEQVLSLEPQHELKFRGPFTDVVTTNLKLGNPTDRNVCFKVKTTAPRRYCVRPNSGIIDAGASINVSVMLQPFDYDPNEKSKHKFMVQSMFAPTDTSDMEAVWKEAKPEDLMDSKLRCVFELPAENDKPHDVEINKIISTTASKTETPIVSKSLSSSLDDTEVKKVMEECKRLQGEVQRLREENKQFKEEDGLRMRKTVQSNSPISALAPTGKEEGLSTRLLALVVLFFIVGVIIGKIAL"}, "source": "paper PMC4068158", "molecular_target": "Flag-FAF1 lacking the UAS domain (human) (UniProt Q9UNN5)", "assay": "co-IP; anti-Flag M2 beads on lysates of U2OS cells expressing the Flag-tagged bait (transfected or tetracycline-induced); buffer A (50 mM HEPES/KOH pH 7.2, 5 mM Mg(OAc)2, 70 mM KOAc, 0.2% Triton X-100, 10% glycerol, 0.2 mM EDTA), 4°C, 2 hr; endogenous prey by immunoblot; cells untreated, treated with MG132 or with siRNA (FAF1, p97, ASNA1, luciferase) as indicated", "note": "No constants are given. Whether binding was seen depends on the method and setting. Binding seen in cells or lysates may run through a third protein. Binding can be weak; no strength is given."}
{"substance": "endogenous VAPB (human cells) (from UniProt O95292 1-243)", "values": [{"measurement": "binding", "value": "binds"}]}
